Reference: publication PMC9551036, “A selective and orally bioavailable VHL-recruiting PROTAC achieves SMARCA2 degradation in vivo” (Nature Communications, 2022)
Values joined by “and” are separate entries in the source; they are usually repeats but may differ in a detail not shown here. Equal entries are not always repeated. The source gives many values for each of these; only a part stands here.

Test system: panel of cell lines (A549, HCC-364, HCC-515, HCC4006, KYSE-30, LU99, LXFA_629L, LXFA_923L, LXFL_529L, LXFL_1121L, MP38, NCI-H23, NCI-H1355, OV-90, SK-MEL-5 …)
Assay: Cell viability assay (CellTiter Glo) in a panel of cell lines;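 on % Viability: percent of DMSO-treated control cells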
Format: cell-based, human
Protocol: 500–2000 cells were seeded in white, clear bottom 96-well plates (Corning or Perkin Elmer) in 180–200 µl medium per well. The next day, compounds were added using a digital dispenser and a T0 sample was measured for reference. Cells were incubated for 144–192 h, and viability (luminescence) was measured using CellTiter Glo or CellTiter Glo 2.0 (Promega) according to manufacturer’s instructions after equilibrating cells and reagents at room temperature and 10–20 min incubation time while shaking.

With `Cc1ncsc1-c1ccc(C(CCC(C)CCN2CCC(c3ccc4c(c3)n(C3CCCC3)c3nc(=O)c5c(Br)cccc5n43)CC2)NC(=O)C2CC(O)CN2C(=O)C(NC(=O)C2(F)CC2)C(C)(C)C)cc1` (centres unmarked) [ACBI2] as the molecule, how does the “Bottom (% Viability, four-parameter fit)” value (A549) read?
Its value is 13.02%.

What about the “Top (% Viability, four-parameter fit)” value (A549) of the same molecule?
Its value is 116.8%.

And the “% Viability” value (A549, log10 conc -5 mol/l)?
Its value is -0.1374% and 2.57%.

And the “% Viability” value (A549, log10 conc -5.50031 mol/l)?
Its value is 28.8669% and 38.9325%.

And the “% Viability” value (A549, log10 conc -6 mol/l)?
Its value is 40.1754%.

And the “% Viability” value (A549, log10 conc -6.50031 mol/l)?
Its value is 36.282%.

What about the “% Viability” value (A549, log10 conc -9 mol/l) of the same molecule?
Its value is 107.686% and 104.787%.

What about the “% Viability” value (A549, log10 conc -9.50031 mol/l) of the same molecule?
The value was 114.76% and 105.547%.

What about the “% Viability” value (A549, log10 conc -10 mol/l) of the same molecule?
Its value is 109.903% and 103.691%.

What about the “% Viability” value (A549, log10 conc -10.5003 mol/l) of the same molecule?
The value was 108.588% and 107.269%.

And the “Bottom (% Viability, four-parameter fit)” value (HCC4006)?
The value was 38.95%.

What about the “Top (% Viability, four-parameter fit)” value (HCC4006) of the same molecule?
The value was 113.9%.

And the “% Viability” value (HCC4006, log10 conc -5.30103 mol/l)?
The value was 39.1357% and 40.8034%.

What about the “% Viability” value (HCC4006, log10 conc -5.90309 mol/l) of the same molecule?
The value was 34.8567%.

What about the “% Viability” value (HCC4006, log10 conc -6.50446 mol/l) of the same molecule?
The value was 58.4669%.

What about the “% Viability” value (HCC4006, log10 conc -8.91364 mol/l) of the same molecule?
Its value is 120.273% and 113.03%.

What about the “% Viability” value (HCC4006, log10 conc -9.5157 mol/l) of the same molecule?
The value was 111.777% and 109.936%.

What about the “% Viability” value (HCC4006, log10 conc -10.1175 mol/l) of the same molecule?
The value was 114.662% and 106.899%.

And the “Bottom (% Viability, four-parameter fit)” value (HCC-364)?
The value was 16.23%.

And the “Top (% Viability, four-parameter fit)” value (HCC-364)?
Its value is 101.8%.

What about the “% Viability” value (HCC-364, log10 conc -5.30103 mol/l) of the same molecule?
Its value is 20.2173% and 17.8517%.

And the “% Viability” value (HCC-364, log10 conc -5.90309 mol/l)?
The value was 10.9947%.

What about the “% Viability” value (HCC-364, log10 conc -6.50446 mol/l) of the same molecule?
The value was 15.4098%.

And the “% Viability” value (HCC-364, log10 conc -8.91364 mol/l)?
The value was 106.701% and 101.727%.

And the “% Viability” value (HCC-364, log10 conc -9.5157 mol/l)?
The value was 102.299% and 102.94%.

What about the “% Viability” value (HCC-364, log10 conc -10.1175 mol/l) of the same molecule?
Its value is 99.5144% and 99.0216%.

What about the “Bottom (% Viability, four-parameter fit)” value (HCC-515) of the same molecule?
The value was 20.2%.

And the “Top (% Viability, four-parameter fit)” value (HCC-515)?
Its value is 91.57%.

And the “% Viability” value (HCC-515, log10 conc -6 mol/l)?
The value was 21.5991%.

And the “% Viability” value (HCC-515, log10 conc -6.50031 mol/l)?
The value was 25.6456%.

And the “% Viability” value (HCC-515, log10 conc -9 mol/l)?
The value was 65.5237% and 67.2723%.

And the “% Viability” value (HCC-515, log10 conc -9.50031 mol/l)?
Its value is 78.2414% and 86.6266%.

What about the “% Viability” value (HCC-515, log10 conc -10 mol/l) of the same molecule?
The value was 81.2712% and 94.2405%.

What about the “% Viability” value (HCC-515, log10 conc -10.5003 mol/l) of the same molecule?
Its value is 79.5343% and 99.7323%.

What about the “Top (% Viability, four-parameter fit)” value (KYSE-30) of the same molecule?
Its value is 102.3%.

What about the “% Viability” value (KYSE-30, log10 conc -5.30103 mol/l) of the same molecule?
The value was 1.425% and 7.245%.

What about the “% Viability” value (KYSE-30, log10 conc -5.90309 mol/l) of the same molecule?
The value was 81.6211%.

And the “% Viability” value (KYSE-30, log10 conc -6.50446 mol/l)?
The value was 82.9463%.

What about the “% Viability” value (KYSE-30, log10 conc -8.91364 mol/l) of the same molecule?
Its value is 106.247% and 103.276%.

And the “% Viability” value (KYSE-30, log10 conc -9.5157 mol/l)?
Its value is 106.171% and 105.016%.

And the “% Viability” value (KYSE-30, log10 conc -10.1175 mol/l)?
Its value is 102.894% and 101.529%.

And the “Bottom (% Viability, four-parameter fit)” value (LU99)?
Its value is 1.403%.

And the “Top (% Viability, four-parameter fit)” value (LU99)?
The value was 113.7%.

And the “% Viability” value (LU99, log10 conc -5.30103 mol/l)?
The value was -0.3005% and -0.1061%.

What about the “% Viability” value (LU99, log10 conc -5.90309 mol/l) of the same molecule?
The value was 11.7371% and 3.8963%.

What about the “% Viability” value (LU99, log10 conc -6.50446 mol/l) of the same molecule?
The value was 18.0569%.

What about the “% Viability” value (LU99, log10 conc -8.91364 mol/l) of the same molecule?
The value was 117.53% and 116.862%.

What about the “% Viability” value (LU99, log10 conc -9.5157 mol/l) of the same molecule?
The value was 115.098% and 115.309%.

And the “% Viability” value (LU99, log10 conc -10.1175 mol/l)?
Its value is 103.339% and 106.134%.

And the “Bottom (% Viability, four-parameter fit)” value (LXFA_629L)?
The value was 4.408%.

What about the “Top (% Viability, four-parameter fit)” value (LXFA_629L) of the same molecule?
Its value is 103.2%.

What about the “% Viability” value (LXFA_629L, log10 conc -5 mol/l) of the same molecule?
Its value is -0.1579% and -0.1591%.

And the “% Viability” value (LXFA_629L, log10 conc -5.50031 mol/l)?
The value was 3.766% and 1.726%.

And the “% Viability” value (LXFA_629L, log10 conc -6 mol/l)?
The value was 11.0009%.

What about the “% Viability” value (LXFA_629L, log10 conc -6.50031 mol/l) of the same molecule?
Its value is 19.3352%.

What about the “% Viability” value (LXFA_629L, log10 conc -9 mol/l) of the same molecule?
Its value is 96.6536% and 97.2919%.

What about the “% Viability” value (LXFA_629L, log10 conc -9.50031 mol/l) of the same molecule?
The value was 103.522% and 98.2665%.

What about the “% Viability” value (LXFA_629L, log10 conc -10 mol/l) of the same molecule?
The value was 102.461% and 99.7874%.

What about the “% Viability” value (LXFA_629L, log10 conc -10.5003 mol/l) of the same molecule?
The value was 92.1766% and 98.0864%.

What about the “Bottom (% Viability, four-parameter fit)” value (LXFA_923L) of the same molecule?
Its value is 5.956%.

What about the “Top (% Viability, four-parameter fit)” value (LXFA_923L) of the same molecule?
The value was 119.4%.

What about the “% Viability” value (LXFA_923L, log10 conc -5 mol/l) of the same molecule?
The value was -0.1442% and -0.0545%.

What about the “% Viability” value (LXFA_923L, log10 conc -5.50031 mol/l) of the same molecule?
Its value is 10.2166% and 18.3827%.

What about the “% Viability” value (LXFA_923L, log10 conc -6 mol/l) of the same molecule?
The value was 20.0341%.

And the “% Viability” value (LXFA_923L, log10 conc -6.50031 mol/l)?
The value was 26.0427%.

And the “% Viability” value (LXFA_923L, log10 conc -7 mol/l)?
The value was 27.9454% and 28.6792%.

And the “% Viability” value (LXFA_923L, log10 conc -9 mol/l)?
Its value is 83.2369% and 88.6338%.

What about the “% Viability” value (LXFA_923L, log10 conc -9.50031 mol/l) of the same molecule?
Its value is 100.595% and 97.3381%.
